This assay deals with Flag-tagged zebrafish Pax1b (zebrafish) (UniProt B0S7C8). Briefly: co-IP; HEK293FT cells co-transfected with Myc-tagged FOXO1 and a Flag-tagged Pax protein; lysate immunoprecipitated with anti-Flag M2 affinity resin, immunoblotted; also after CoCl2 (2, 20, 200, 400 umol/L, 14 h), which strengthened the PAX1-FOXO1 interaction.

Chains of the proteins cited; added tags and fusions are not shown. Lines headed by an entry give the natural chain unless they say otherwise; changes in a name come on top.
UniProt B0S7C8: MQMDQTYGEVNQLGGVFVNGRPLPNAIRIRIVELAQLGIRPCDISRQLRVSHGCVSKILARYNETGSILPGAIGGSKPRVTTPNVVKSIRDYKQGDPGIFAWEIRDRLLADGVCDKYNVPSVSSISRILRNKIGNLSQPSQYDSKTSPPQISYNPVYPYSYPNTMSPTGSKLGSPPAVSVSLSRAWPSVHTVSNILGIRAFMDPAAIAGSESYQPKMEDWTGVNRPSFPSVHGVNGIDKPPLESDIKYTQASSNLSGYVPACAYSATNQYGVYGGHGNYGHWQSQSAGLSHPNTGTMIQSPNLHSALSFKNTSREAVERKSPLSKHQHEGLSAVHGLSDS
UniProt Q12778: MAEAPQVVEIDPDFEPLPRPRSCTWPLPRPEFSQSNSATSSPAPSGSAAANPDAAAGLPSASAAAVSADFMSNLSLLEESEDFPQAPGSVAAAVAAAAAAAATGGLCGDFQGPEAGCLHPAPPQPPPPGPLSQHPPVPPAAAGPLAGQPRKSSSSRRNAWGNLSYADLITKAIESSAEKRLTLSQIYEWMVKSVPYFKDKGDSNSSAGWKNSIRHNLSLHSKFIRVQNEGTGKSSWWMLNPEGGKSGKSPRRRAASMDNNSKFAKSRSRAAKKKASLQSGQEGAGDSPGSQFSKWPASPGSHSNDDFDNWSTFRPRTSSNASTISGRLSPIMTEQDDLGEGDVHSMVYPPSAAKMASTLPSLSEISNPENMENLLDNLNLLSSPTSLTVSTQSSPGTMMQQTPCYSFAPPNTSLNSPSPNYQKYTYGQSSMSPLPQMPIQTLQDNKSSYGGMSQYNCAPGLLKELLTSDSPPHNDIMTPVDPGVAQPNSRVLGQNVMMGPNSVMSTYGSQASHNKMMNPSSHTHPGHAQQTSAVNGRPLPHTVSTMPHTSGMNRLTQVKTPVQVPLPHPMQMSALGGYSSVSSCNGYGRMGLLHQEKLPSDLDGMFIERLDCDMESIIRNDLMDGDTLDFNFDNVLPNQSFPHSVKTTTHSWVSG

These are yes or no findings as the source states them, for the method shown. Binding seen in cells or lysates may run through a third protein. Binding calls can cover weak binding; strength is not graded here.

On to “Myc-tagged FOXO1 (from UniProt Q12778 1-655)”, for which the binding entry is listed as “binds”.

Source of the values: article PMC4147360.
